The list shows only some results of the screen, not a fair sample: it is rich in T/C values a quarter to a half above the control, in often repeated tests (any T/C) and in doses without a T/C. Other doses and runs of a compound stand elsewhere. T/C gives the treated animals as a percentage of the vehicle group. Some doses have a count of surviving animals in place of a T/C: the source files T/C as zero there, which appears to mark a toxic dose or a test without result, not a measured value. Some survivor counts are full or nearly so, which does not show that the dose was tolerated: the source hardly ever lists a survival T/C far under the control, and the zero likely stands for such cases as well. Survivors were counted at the toxicity check, usually on the fifth day, unless a day is given; later deaths do not show. Schedules are NCI's codes, taken here to give the interval after Q, in days (D) or hours (H), and the number of doses after X. For survival time, the PubChem record calls one and a half times the control and up active, and a quarter to a half above the control has no call in these data; cut-offs in other NCI protocols can differ.
System: BDF1 mice, P388 leukemia ip, median survival T/C
Assay: NCI In Vivo Anticancer Drug Screen. Data for tumor model P388 Leukemia (intraperitoneal) in B6D2F1 (BDF1) mice
Settings: T/C endpoint: median survival time, higher T/C = longer survival
How it was run: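 In tumour-bearing mice, survival after compound treatment is set against the vehicle group and given as a quotient.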

[1] = dose: 200.0 mg/kg/injection, schedule: Q01DX009 (ip), vehicle: saline with Tween-80
[2] = dose: 200.0 mg/kg/injection, schedule: Q04DX003 (ip), vehicle: saline with Tween-80

SMILES: C=C(C)CSC(=S)NNc1ccccc1
- T/C (dose: 225.0 mg/kg/injection, schedule: Q01DX009 (ip), vehicle: Klucel (hydroxypropylcellulose) (HPC)): 125 % of control
- survivor count (dose: 225.0 mg/kg/injection, schedule: Q01DX009 (ip), vehicle: alcohol): 1 of 6
- survivor count (dose: 335.0 mg/kg/injection, schedule: Q01DX009 (ip), vehicle: alcohol): 0 of 6
- survivor count (dose: 400.0 mg/kg/injection, schedule: Q01DX001 (ip), vehicle: alcohol): 1 of 6

SMILES: CCN(CC)CCCC(C)NC(=O)c1cc(=O)[nH]c(=O)[nH]1 (stereo not drawn)
- survivor count (dose: 200.0 mg/kg/injection, schedule: Q01DX009 (ip), vehicle: water): 4 of 6
- survivor count (dose: 400.0 mg/kg/injection, schedule: Q04DX003 (ip), vehicle: water): 1 of 6

SMILES: NC(=O)CC(N)C(=O)O (stereo not drawn)
- T/C (dose: 200.0 mg/kg/injection, schedule: Q01DX010 (ip), vehicle: saline with Tween-80): 140 % of control
- T/C (dose: 800.0 mg/kg/injection, schedule: Q01DX010 (ip), vehicle: saline with Tween-80): 136 % of control

SMILES: Nc1ncnc2[nH]c(=O)[nH]c12
- survivor count (dose: 50.0 mg/kg/injection, schedule: Q01DX009 (ip), vehicle: saline with Tween-80): 4 of 6
- survivor count (dose: 100.0 mg/kg/injection, schedule: Q01DX009 (ip), vehicle: saline with Tween-80): 3 of 6
- survivor count (dose: 100.0 mg/kg/injection, schedule: Q04DX003 (ip), vehicle: saline with Tween-80): 4 of 6
- survivor count [1]: 3 of 6
- survivor count (dose: 400.0 mg/kg/injection, schedule: Q01DX009 (ip), vehicle: saline with Tween-80): 3 of 6

SMILES: CCC(C)C(NC(=O)OCc1ccccc1)C(=O)ON1C(=O)CCC1=O (stereo not drawn)
- T/C [2]: 127 % of control

SMILES: CC(C)(C)c1cc2c3c(c1)C(C)(C)OS3(C)(=O)OC2(C)C
- survivor count (dose: 100.0 mg/kg/injection, schedule: Q04DX002 (ip), vehicle: saline with Tween-80): 0 of 6
- survivor count (dose: 200.0 mg/kg/injection, schedule: Q04DX002 (ip), vehicle: saline with Tween-80): 0 of 6

SMILES: O=P(N1CC1)(N1CC1)N1CC2CCC(CC2)C1
- T/C (dose: 16.5 mg/kg/injection, schedule: Q04DX003 (ip), vehicle: saline): 136 % of control

SMILES: CC12CCC(=O)C=C1CCC1C2CCC2(C)C(OP(=O)(N3CC3)N3CC3)CCC12 (stereo not drawn)
- T/C [2]: 128 % of control
- T/C (dose: 400.0 mg/kg/injection, schedule: Q04DX003 (ip), vehicle: saline with Tween-80): 144 % of control

SMILES: NC(CC1=CCC=CC1)C(=O)O (stereo not drawn)
- survivor count (dose: 25.0 mg/kg/injection, schedule: Q01DX009 (ip), vehicle: saline): 1 of 3
- T/C (dose: 100.0 mg/kg/injection, schedule: Q01DX009 (ip), vehicle: saline): 127 % of control
- survivor count (dose: 200.0 mg/kg/injection, schedule: Q01DX009 (ip), vehicle: saline): 3 of 3

SMILES: CCCCC(CC)C(=O)[O][Sn]([CH2]CCC)([CH2]CCC)[O]C(=O)C(CC)CCCC (stereo not drawn)
- T/C (dose: 25.0 mg/kg/injection, schedule: Q04DX003 (ip), vehicle: acetone): 125 % of control

SMILES: O=c1[nH]cc(N(CCCl)CCCl)c(=O)[nH]1
- survivor count (dose: 3.0 mg/kg/injection, schedule: Q01DX010 (ip), vehicle: saline): 6 of 6
- survivor count (dose: 6.0 mg/kg/injection, schedule: Q01DX010 (ip), vehicle: saline): 5 of 6

SMILES: O=C1OC(c2ccc([N+](=O)[O-])cc2)Sc2ccccc21 (stereo not drawn)
- T/C (dose: 100.0 mg/kg/injection, schedule: Q01DX009 (ip), vehicle: Klucel (hydroxypropylcellulose) (HPC)): 127 % of control

SMILES: O=C=Nc1ccc(CCc2ccc(N=C=O)cc2)cc1
- T/C [1]: 130 % of control

SMILES: CC1=CC(=O)OC2(C1)CC1CCC2CN1C (stereo not drawn)
- survivor count (dose: 100.0 mg/kg/injection, schedule: Q04DX003 (ip), vehicle: saline): 2 of 6

SMILES: N#CSCc1ccc(CSC#N)c(Cl)c1
- T/C (dose: 3.13 mg/kg/injection, schedule: Q01DX009 (ip), vehicle: saline with Tween-80): 136 % of control

SMILES: COCc1cnc2nc(N)nc(N)c2n1
- survivor count (dose: 6.25 mg/kg/injection, schedule: Q01DX009 (ip), vehicle: other): 1 of 3
- survivor count (dose: 12.5 mg/kg/injection, schedule: Q01DX009 (ip), vehicle: other): 0 of 3
- survivor count (dose: 25.0 mg/kg/injection, schedule: Q01DX009 (ip), vehicle: other): 0 of 3
- survivor count (dose: 50.0 mg/kg/injection, schedule: Q01DX009 (ip), vehicle: other): 0 of 3

Reference: PubChem BioAssay AID328 (DTP/NCI, 2004)
